The other results are listed elsewhere or left out.

The chains behind the UniProt entries cited, without tags or fusion partners.
UniProt Q0JBA9, entry or part of it: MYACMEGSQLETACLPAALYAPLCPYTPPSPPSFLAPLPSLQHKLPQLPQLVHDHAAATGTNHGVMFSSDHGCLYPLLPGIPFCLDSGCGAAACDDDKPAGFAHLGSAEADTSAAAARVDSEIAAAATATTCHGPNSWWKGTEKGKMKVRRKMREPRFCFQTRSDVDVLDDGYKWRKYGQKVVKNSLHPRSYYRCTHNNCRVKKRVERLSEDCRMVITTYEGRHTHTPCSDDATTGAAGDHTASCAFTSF

Results on 42 sequences are retold here after publication PMC7819943, “Rice protein-binding microarrays: a tool to detect cis-acting elements near promoter regions in rice”.

The target in the assay is OsWRKY34 (Oryza sativa, UniProt Q0JBA9 1-250). In words: protein-binding microarray (RPBM); PBS, 2% BSA, 51.3 ng/ul salmon testes DNA, 50 uM zinc acetate, 200 nM TF, 25 C, 1 h; high values mean tight binding. To be noted: protein: recombinant; tags: N-terminal polyhistidine and DsRed monomer fusion (pET32a); label: CyDye5-dUTP incorporated in the synthesized complementary strand; 3' TTTTT single-stranded linker to array surface; dsDNA, one strand shown. Put shortly: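 The binding signal is fluorescence intensity per feature, in arbitrary units, read on an Axon 4000B scanner. Polyhistidine- and DsRed-tagged transcription factors (N-terminal fusions) from E. coli BL21-CodonPlus were purified on Ni–NTA and applied at 200 nM for 1 h at 25 °C to a double-stranded, BSA-blocked custom Agilent array in buffer with 50 µM zinc acetate.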
Regarding “AAACGCGTCCAGCTCATCGTCGCCGGCGCCTCGTTTCACCCGGAGTCACCTAGTGCAG”, the binding signal is 8450 fluorescence intensity (a.u.).

As for “CGTTGACTTTTTAGCACATGTTTGACCGTTCGTCTTATTCCGGAGTCACCTAGTGCAG”, the binding signal is 29000 fluorescence intensity (a.u.).

In the case of “ACTTTTCTTCCATCCATCCATCCATCCATTTGATTCAAGACGGAGTCACCTAGTGCAG”, the binding signal is 11400 fluorescence intensity (a.u.).

With “AGCAGCAAAGGGGCGGTGGGTTCTTTGTCTCTCTCTCTCGCGGAGTCACCTAGTGCAG”, the binding signal was 11800 fluorescence intensity (a.u.).

For the sequence “TATATGTTTCCATGTCTAACGTCGTTTAACTATCCGTCTTCGGAGTCACCTAGTGCAG”, the binding signal is 9210 fluorescence intensity (a.u.).

Regarding “CAACACCCGTCCGCCAGAGAAGACCATCGTGACGCCACTCCGGAGTCACCTAGTGCAG”, the binding signal is 10500 fluorescence intensity (a.u.).

For “CCGCGTACGCGTACGTATAACCTCGCGTCTTTACAGTCTACGGAGTCACCTAGTGCAG”, the binding signal is 8510 fluorescence intensity (a.u.).

For “CACCCAGAGCCCACGACCCGACTCGACCGACGCGCGCTGTCGGAGTCACCTAGTGCAG”, the binding signal is 8710 fluorescence intensity (a.u.).

Turning to “CTATCCTGCACTGAAGCCATCGGTCAAATTATCCAAATTACGGAGTCACCTAGTGCAG”, the binding signal was 8360 fluorescence intensity (a.u.).

With “ACCCTAGAGTTGCCCTAGCCCGCTTCGCCGGCGGCCGCCACGGAGTCACCTAGTGCAG”, the binding signal is 10400 fluorescence intensity (a.u.).

With “TCGGGGCGGTGGGGAGGTTTGAGGTTAGTCATGGACTGTGCGGAGTCACCTAGTGCAG”, the binding signal is 12500 fluorescence intensity (a.u.).

On to “GGTTACTATTTATTTGACCTATGTGGGTTGACCCACTTTGCGGAGTCACCTAGTGCAG”, for which the binding signal was 9750 fluorescence intensity (a.u.).

For “TACTTATACCGTTCACTTCTTAACACATATTTGACTATTTCGGAGTCACCTAGTGCAG”, the binding signal was 10600 fluorescence intensity (a.u.).

Regarding “CCATCGCTTCGTCTGGTCGTTTCGTCTGGCAACGCCGCCGCGGAGTCACCTAGTGCAG”, the binding signal was 8180 fluorescence intensity (a.u.).

As for “CCCGAGTCTTTAATCACTTTTGCTTACGTGTATGGTTAGGCGGAGTCACCTAGTGCAG”, the binding signal is 10200 fluorescence intensity (a.u.).

As to “GACTGAGCTTTGTGGGTGGGTTGGTTGGTTGGTTATACAACGGAGTCACCTAGTGCAG”, the binding signal was 30500 fluorescence intensity (a.u.).

“TCCGGTCAAACACCACACACCTGACCGTTTCGCCGCCGCGCGGAGTCACCTAGTGCAG”: the binding signal was 8630 fluorescence intensity (a.u.).

For “CCACCACTCATTTATGTTGGACCAACTCTTCTCGCCCTAACGGAGTCACCTAGTGCAG”, the binding signal was 8970 fluorescence intensity (a.u.).

Consider “CCGCACGCACGCTTTTTAAACTGTTAAACGATGTGTTTTTCGGAGTCACCTAGTGCAG”, for which the binding signal was 10400 fluorescence intensity (a.u.).

As for “CGCCGCTACCATCCAATCCACCCCACTCCATTCTCTCATCCGGAGTCACCTAGTGCAG”, the binding signal is 11600 fluorescence intensity (a.u.).

Turning to “CCTCAACCTCTCATTGCCGTTCTGCCGTCAAGAAAATAAGCGGAGTCACCTAGTGCAG”, the binding signal is 8250 fluorescence intensity (a.u.).

For “ATATATATATATATATATATATATATATATATATAATGGGCGGAGTCACCTAGTGCAG”, the binding signal was 8180 fluorescence intensity (a.u.).

Regarding “GCTTGGTCTATAAGTTGCTGCTCTGCCCTGCTCGGCCTCACGGAGTCACCTAGTGCAG”, the binding signal was 12000 fluorescence intensity (a.u.).

Turning to “ATGTTTGACCGTTCGTCTTATTCAAAAATTTTAAGTAATTCGGAGTCACCTAGTGCAG”, the binding signal was 8760 fluorescence intensity (a.u.).

Consider “GGACTTACATCCAATGTTTATAGGGGTATTTAGATTTTTTCGGAGTCACCTAGTGCAG”, for which the binding signal was 11000 fluorescence intensity (a.u.).

In the case of “ATCTCGTGACGTCTCCCGCTCCCGCTCGCGTTGCTCCCAACGGAGTCACCTAGTGCAG”, the binding signal was 10200 fluorescence intensity (a.u.).

In the case of “GTTGTCTCTATCCCCACCGGCACCGCTCGCTGCTTCCATGCGGAGTCACCTAGTGCAG”, the binding signal is 8040 fluorescence intensity (a.u.).

For the sequence “CTTCGCTTGTCCGGCCAGAAGCTCTTTCTTCACATTTGCTCGGAGTCACCTAGTGCAG”, the binding signal was 8460 fluorescence intensity (a.u.).

For “GGAGACGTTATATCTGCTACTGTGGTTGTGGGAGGTGATTCGGAGTCACCTAGTGCAG”, the binding signal was 8110 fluorescence intensity (a.u.).

In the case of “TATAGTTTTATATGATCCCAATTGATGTTACTTATTTTTTCGGAGTCACCTAGTGCAG”, the binding signal was 10200 fluorescence intensity (a.u.).

With “TGGGATGGTGAAGTTGCTATAGAGATAGTTTTGGTTTGCCCGGAGTCACCTAGTGCAG”, the binding signal is 10100 fluorescence intensity (a.u.).

On to “AGTCTGAACTAGTAGCTTGCCCACTCTGCTTCCTTTTATACGGAGTCACCTAGTGCAG”, for which the binding signal was 8780 fluorescence intensity (a.u.).

Consider “TCTCTCTCTCTCTCCTCTGCATCCGCGCGCATTGCTCGATCGGAGTCACCTAGTGCAG”, for which the binding signal is 9000 fluorescence intensity (a.u.).

As for “GCCCGCCGCACTGGCCTGCCGCGCGCCCGCGCCTAGCTCCCGGAGTCACCTAGTGCAG”, the binding signal was 8100 fluorescence intensity (a.u.).

Take “CCTCACCTCTCCTAGCTAGTCCGATGAGATTCCTCGCCACCGGAGTCACCTAGTGCAG”: the binding signal is 9750 fluorescence intensity (a.u.).

As for “AGGTCGGGCAGGCGGTTGGGAAATACCCGCCCTATTTTCACGGAGTCACCTAGTGCAG”, the binding signal is 9520 fluorescence intensity (a.u.).

Take “AGTTTCCGAAAAATATGTCCAGCTTATCTCAACTGCGCCACGGAGTCACCTAGTGCAG”: the binding signal is 8560 fluorescence intensity (a.u.).

For the sequence “CCTCTGTCTCTTGTCTCTCCTGATTCCCTTCGACCGACCGCGGAGTCACCTAGTGCAG”, the binding signal is 10200 fluorescence intensity (a.u.).

As to “TGGTGGTGGTGCTAGGTAGCTAGCTAGTAGTAGTTTTTCTCGGAGTCACCTAGTGCAG”, the binding signal is 9620 fluorescence intensity (a.u.).

With “GTACACACGCCCTGCCAAATTGACTGACCGCATCCTCGTCCGGAGTCACCTAGTGCAG”, the binding signal is 8940 fluorescence intensity (a.u.).

In the case of “CTTTACCACCTCTTCCTAACTTTCACTTGCTTGTTTTTCACGGAGTCACCTAGTGCAG”, the binding signal was 9720 fluorescence intensity (a.u.).

“TTACTTTCCAGTCCAATTTCCAAGCTACCACGGTATTTATCGGAGTCACCTAGTGCAG”: the binding signal was 8192 fluorescence intensity (a.u.).
